# Laboratory results: publication PMC11538701
# Chains of the proteins cited; added tags and fusions are not shown.
# UniProt P08183: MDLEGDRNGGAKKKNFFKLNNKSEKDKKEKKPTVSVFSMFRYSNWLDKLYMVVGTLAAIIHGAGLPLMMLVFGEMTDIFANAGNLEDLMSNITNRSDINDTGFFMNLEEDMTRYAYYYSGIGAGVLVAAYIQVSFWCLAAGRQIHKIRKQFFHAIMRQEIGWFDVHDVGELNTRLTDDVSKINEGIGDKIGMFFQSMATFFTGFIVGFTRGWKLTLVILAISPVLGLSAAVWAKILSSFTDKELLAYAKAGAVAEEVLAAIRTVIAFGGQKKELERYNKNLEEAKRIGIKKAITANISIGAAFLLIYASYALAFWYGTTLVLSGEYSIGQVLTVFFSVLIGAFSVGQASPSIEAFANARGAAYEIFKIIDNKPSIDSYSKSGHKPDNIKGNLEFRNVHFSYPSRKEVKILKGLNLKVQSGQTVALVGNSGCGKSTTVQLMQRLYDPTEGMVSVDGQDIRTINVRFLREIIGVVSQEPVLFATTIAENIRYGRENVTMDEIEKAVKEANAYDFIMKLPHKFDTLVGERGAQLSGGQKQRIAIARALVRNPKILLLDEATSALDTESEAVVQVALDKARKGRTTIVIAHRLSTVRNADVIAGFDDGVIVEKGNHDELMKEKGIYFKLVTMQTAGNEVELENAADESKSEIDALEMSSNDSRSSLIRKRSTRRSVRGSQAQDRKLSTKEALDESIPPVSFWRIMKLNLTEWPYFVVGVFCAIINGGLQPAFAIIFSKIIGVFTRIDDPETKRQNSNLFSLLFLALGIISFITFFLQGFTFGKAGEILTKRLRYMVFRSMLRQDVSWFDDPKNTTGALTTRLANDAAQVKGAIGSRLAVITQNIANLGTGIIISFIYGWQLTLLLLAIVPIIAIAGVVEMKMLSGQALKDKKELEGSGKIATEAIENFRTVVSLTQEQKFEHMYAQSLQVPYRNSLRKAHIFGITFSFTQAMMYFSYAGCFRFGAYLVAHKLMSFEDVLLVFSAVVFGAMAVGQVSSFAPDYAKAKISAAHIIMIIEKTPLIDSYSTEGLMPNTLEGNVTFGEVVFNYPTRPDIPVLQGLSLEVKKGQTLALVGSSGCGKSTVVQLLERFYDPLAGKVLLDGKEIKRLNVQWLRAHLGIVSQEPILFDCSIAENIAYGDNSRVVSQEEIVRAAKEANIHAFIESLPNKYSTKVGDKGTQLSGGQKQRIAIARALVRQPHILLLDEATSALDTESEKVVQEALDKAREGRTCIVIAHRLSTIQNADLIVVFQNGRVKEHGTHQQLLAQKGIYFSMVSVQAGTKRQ
# These are yes or no findings as the source states them, for the method shown. Binding seen in cells or lysates may run through a third protein. Some entries that bind do so weakly or less than the wild type.
# What was measured:
# [1] = molecular target: PD‐L1‐HA (programmed death‐ligand 1, HA-tagged), expressed in HEK293T (UniProt Q9NZQ7); experiment: co-IP; HEK293T transfected with PD‐L1‐HA and ABCB1 plasmid; lysate (1% NP‐40, 150 mM NaCl, pH 7.4) incubated with anti‐HA affinity beads at 4 °C overnight
# [2] = molecular target: ABCB1 (ATP binding cassette subfamily B member 1), endogenous in NCI‐H460 (human (endogenous in NCI‐H460)) (UniProt P08183); experiment: co-IP; NCI‐H460 lysate (1% NP‐40, 150 mM NaCl, pH 7.4) immunoprecipitated with ABCB1 antibody, protein A/G beads; untreated, or treated with zosuquidar, tariquidar or elacridar in the presence of CQ for 12 h
# [3] = molecular target: PD‐L1‐HA (programmed death‐ligand 1, HA-tagged), expressed in NCI‐H460 (UniProt Q9NZQ7); experiment: co-IP; NCI‐H460 cells transfected with PD‐L1‐HA plasmid for 24 h, then treated with zosuquidar and chloroquine (CQ); lysates immunoprecipitated with anti‐HA affinity beads; blots for SARs
# [4] = molecular target: PD‐L1 (programmed death‐ligand 1), endogenous in NCI‐H460 (human (endogenous in NCI‐H460)) (UniProt Q9NZQ7); experiment: co-IP; NCI‐H460 cells treated with zosuquidar and CQ (20 x 10^-6 M) for 12 h; lysates (1% NP‐40, 150 mM NaCl, pH 7.4) immunoprecipitated with PD‐L1 antibody, protein A/G beads
# [5] = molecular target: PD‐L1 (programmed death‐ligand 1), endogenous in NCI‐H460 (human (endogenous in NCI‐H460)) (UniProt Q9NZQ7); experiment: co-IP; NCI‐H460 cells transfected with vector or ABCB1 plasmid in the presence of CQ for 12 h; lysates immunoprecipitated with PD‐L1 antibody
molecule,measurement,setting,value
"ABCB1 (ATP binding cassette subfamily B member 1), from plasmid in HEK293T (from UniProt P08183 1-1280)",binding,[1],binds
"PD‐L1 (programmed death‐ligand 1), endogenous in NCI‐H460 (from UniProt Q9NZQ7 19-290)",binding,[2],binds
"SQSTM1 (sequestosome 1), endogenous in NCI‐H460 (from UniProt Q13501 1-440)",binding,[3],binds
"SEC24A, a core subunit of COPII, endogenous in NCI‐H460 (protein, UniProt O95486 1-1093) MSQPGIPASGGAPASLQAQNGAALASGSPYTNGPVQNALLSSQESVSQGYNFQLPGSYPHPIPAKTLNPVSGQSNYGGSQGSGQTLNRPPVASNPVTPSLHSGPAPRMPLPASQNPATTPMPSSSFLPEANLPPPLNWQYNYPSTASQTNHCPRASSQPTVSGNTSLTTNHQYVSSGYPSLQNSFIKSGPSVPPLVNPPLPTTFQPGAPHGPPPAGGPPPVRALTPLTSSYRDVPQPLFNSAVNQEGITSNTNNGSMVVHSSYDEIEGGGLLATPQLTNKNPKMSRSVGYSYPSLPPGYQNTTPPGATGVPPSSLNYPSGPQAFTQTPLGANHLTTSMSGLSLQPEGLRVVNLLQERNMLPSTPLKPPVPNLHEDIQKLNCNPELFRCTLTSIPQTQALLNKAKLPLGLLLHPFKDLVQLPVVTSSTIVRCRSCRTYINPFVSFLDQRRWKCNLCYRVNDVPEEFLYNPLTRVYGEPHRRPEVQNATIEFMAPSEYMLRPPQPPVYLFVFDVSHNAVETGYLNSVCQSLLDNLDLLPGNTRTKIGFITFDSTIHFYGLQESLSQPQMLIVSDIEDVFIPMPENLLVNLNESKELVQDLLKTLPQMFTKTLETQSALGPALQAAFKLMSPTGGRMSVFQTQLPTLGVGALKPREEPNHRSSAKDIHMTPSTDFYKKLALDCSGQQVAVDLFLLSGQYSDLASLGCISRYSAGSVYYYPSYHHQHNPVQVQKLQKELQRYLTRKIGFEAVMRIRCTKGLSIHTFHGNFFVRSTDLLSLPNVNPDAGYAVQMSVEESLTDTQLVSFQSALLYTSSKGERRIRVHTLCLPVVSTLNDVFLGADVQAISGLLANMAVDRSMTASLSDARDALVNAVIDSLSAYRSSVLSNQQPGLMVPFSLRLFPLFVLALLKQKSFQTGTNARLDERIFAMCQVKNQPLVYLMLTTHPSLYRVDNLSDEGALNISDRTIPQPPILQLSVEKLSRDGAFLMDAGSVLMLWVGKNCTQNFLSQVLGVQNYASIPQPMTDLPELDTPESARIIAFISWLREQRPFFPILYVIRDESPMKANFLQNMIEDRTESALSYYEFLLHIQQQVNK",binding,[4],binds
same,binding,[5],binds
